Source: publication PMC6379987
No constants are given. Whether binding was seen depends on the method and setting. Binding seen in cells or lysates may run through a third protein. A result given as binding can be weak or reduced; the word gives no strength.

Sequences of proteins named here, by UniProt entry; tags and fusion partners are left off. A change or cut given only in a name is not applied to a line headed by its entry.
UniProt Q62120: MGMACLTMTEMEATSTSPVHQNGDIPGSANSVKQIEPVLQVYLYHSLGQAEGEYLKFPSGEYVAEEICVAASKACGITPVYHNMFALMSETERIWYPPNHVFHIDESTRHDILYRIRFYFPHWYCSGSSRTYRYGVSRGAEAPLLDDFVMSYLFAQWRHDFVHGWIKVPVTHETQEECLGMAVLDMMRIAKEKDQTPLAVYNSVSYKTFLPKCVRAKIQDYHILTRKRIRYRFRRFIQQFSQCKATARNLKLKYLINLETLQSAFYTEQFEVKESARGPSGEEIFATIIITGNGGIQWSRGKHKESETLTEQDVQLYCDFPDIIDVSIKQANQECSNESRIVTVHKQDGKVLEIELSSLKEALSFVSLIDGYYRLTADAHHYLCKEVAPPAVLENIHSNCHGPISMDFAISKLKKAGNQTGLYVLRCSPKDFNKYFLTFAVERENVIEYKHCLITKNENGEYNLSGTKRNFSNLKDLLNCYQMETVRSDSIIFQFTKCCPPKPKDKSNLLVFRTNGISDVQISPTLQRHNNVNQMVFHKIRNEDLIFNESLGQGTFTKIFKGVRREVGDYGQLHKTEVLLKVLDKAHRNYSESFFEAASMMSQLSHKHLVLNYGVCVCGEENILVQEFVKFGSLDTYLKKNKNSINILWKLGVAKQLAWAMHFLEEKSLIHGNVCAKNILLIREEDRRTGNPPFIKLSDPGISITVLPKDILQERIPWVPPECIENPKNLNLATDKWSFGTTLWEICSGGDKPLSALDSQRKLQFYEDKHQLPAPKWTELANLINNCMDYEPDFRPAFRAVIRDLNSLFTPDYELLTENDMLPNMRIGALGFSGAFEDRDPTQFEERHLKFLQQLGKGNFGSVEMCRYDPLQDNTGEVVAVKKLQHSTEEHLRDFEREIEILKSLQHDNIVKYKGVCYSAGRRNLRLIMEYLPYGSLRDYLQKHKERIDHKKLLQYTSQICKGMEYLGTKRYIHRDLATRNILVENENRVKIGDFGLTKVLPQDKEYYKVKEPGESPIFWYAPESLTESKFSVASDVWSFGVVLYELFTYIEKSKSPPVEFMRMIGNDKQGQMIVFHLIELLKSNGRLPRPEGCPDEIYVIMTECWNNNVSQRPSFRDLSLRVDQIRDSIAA

Molecular target: HA-tagged PDGFRβ (UniProt P09619)
Assay: co-IP; HEK293T transfected with HA-PDGFRβ and mJAK2 wildtype or kinase dead, 24 h, then MG132, pepstatin and leupeptin for 4 h; lysed in IP buffer (50 mM Tris-HCl pH 7.4, 300 mM NaCl, 5 mM EDTA, 1% Nonidet P40); immunoprecipitated with HA-specific antibody overnight at 4 °C, Protein A/G Dynabeads; western blot

binding: binds
Substance: JAK2 kinase dead (from UniProt Q62120) (enzyme)
